These are yes or no findings as the source states them, for the method shown. Binding calls can cover weak binding; strength is not graded here.
Molecular target: HLA-A*0201 (iTopia Epitope Discovery System) (human)
Experiment: assay not named there (iTopia in Example 14)
Settings: remark: other sources report otherwise

Row | Binder | binding
1 | TLQGLGISWL [HER2 position 444, 10-mer, w.t. (…)] | binds
2 | QLFRNPHQAL [HER2 position 484, 10-mer, w.t. (…)] | binds
3 | AVVGILLVVV [HER2 position 657, 10-mer, w.t. (…)] | binds
4 | ILLVVVLGVV [HER2 position 661, 10-mer, w.t. (…)] | binds

— patent US20110182926A1, “[…]” (priority 2008, published 2011)
